# Laboratory results from the supplement of paper PMC12872613.
# Counter-ions that a name gives are not always drawn. Some of the results follow. Cut-off read from the data, not from the text of the source: active = 0.7 or more and inactive = the rest. Single values are uncertain, as repeats are few or missing.
# Test system: MiaPaCa-2 CLSA-25
# Assay: cell death relative to DMSO vehicle (fraction); higher = more cytotoxic
# Conditions: 5 µM; treatment time 48 h; medium cystine 25 µM
row,Structure (SMILES),cell death
1,O=C(NC1CCN(CCCCC2(C(=O)NCC(F)(F)F)c3ccccc3-c3ccccc32)CC1)c1ccccc1-c1ccc(C(F)(F)F)cc1 [Lomitapide],active: 0.929
2,CC(=O)Nc1nnc(S(N)(=O)=O)s1 [Acetazolamide],inactive: 0.165
3,CN[C@H](CNC(=O)N1CCC[C@@H]([C@@H](OCCNC(=O)OC)c2cccc(Cl)c2)C1)C[C@H]1CCCOC1,inactive: 0.208
4,O=C(O)CN1C(=O)c2cccc3cccc(c23)C1=O [Alrestatin],inactive: 0.182
5,Nc1nc2[nH]cc(CCc3ccc(C(=O)N[C@@H](CCC(=O)O)C(=O)O)cc3)c2c(=O)[nH]1 [Pemetrexed Disodium Hydrate],inactive: 0.0535
6,COC(=O)/C=C/c1cccc(N(Cc2ccc(-c3ccc(N(C)C)cc3)cc2)C(=O)C2CCCCC2)c1 [Fexaramine],active: 0.781
7,NC(=O)C[C@H](N)C(=O)O [L-Asparagine],inactive: 0.042
8,O=C(Nc1ccccc1-c1cn2c(CN3CCNCC3)csc2n1)c1cnc2ccccc2n1 [SRT1720 hydrochloride],active: 0.934
9,CN(C)CCOC(=O)COc1ccc(Cl)cc1 [Meclofenoxate hydrochloride],inactive: 0.0701
10,C=C(C)[C@@H]1CC[C@]2(C(=O)O)CC[C@]3(C)[C@H](CC[C@@H]4[C@@]5(C)CC[C@H](O)C(C)(C)[C@@H]5CC[C@]43C)[C@@H]12 [Betulinic acid],inactive: 0.00241
11,COc1cc2c(c(OC)c1OC)-c1ccc(OC)c(=O)cc1[C@@H](NC(C)=O)CC2 [Colchicine],inactive: 0.457
